# Reference: article doi:10.1101/2023.08.05.552118
# Protein sequences, listed by entry. Tags and fused reporters are not part of them.
# UniProt Q63HN8: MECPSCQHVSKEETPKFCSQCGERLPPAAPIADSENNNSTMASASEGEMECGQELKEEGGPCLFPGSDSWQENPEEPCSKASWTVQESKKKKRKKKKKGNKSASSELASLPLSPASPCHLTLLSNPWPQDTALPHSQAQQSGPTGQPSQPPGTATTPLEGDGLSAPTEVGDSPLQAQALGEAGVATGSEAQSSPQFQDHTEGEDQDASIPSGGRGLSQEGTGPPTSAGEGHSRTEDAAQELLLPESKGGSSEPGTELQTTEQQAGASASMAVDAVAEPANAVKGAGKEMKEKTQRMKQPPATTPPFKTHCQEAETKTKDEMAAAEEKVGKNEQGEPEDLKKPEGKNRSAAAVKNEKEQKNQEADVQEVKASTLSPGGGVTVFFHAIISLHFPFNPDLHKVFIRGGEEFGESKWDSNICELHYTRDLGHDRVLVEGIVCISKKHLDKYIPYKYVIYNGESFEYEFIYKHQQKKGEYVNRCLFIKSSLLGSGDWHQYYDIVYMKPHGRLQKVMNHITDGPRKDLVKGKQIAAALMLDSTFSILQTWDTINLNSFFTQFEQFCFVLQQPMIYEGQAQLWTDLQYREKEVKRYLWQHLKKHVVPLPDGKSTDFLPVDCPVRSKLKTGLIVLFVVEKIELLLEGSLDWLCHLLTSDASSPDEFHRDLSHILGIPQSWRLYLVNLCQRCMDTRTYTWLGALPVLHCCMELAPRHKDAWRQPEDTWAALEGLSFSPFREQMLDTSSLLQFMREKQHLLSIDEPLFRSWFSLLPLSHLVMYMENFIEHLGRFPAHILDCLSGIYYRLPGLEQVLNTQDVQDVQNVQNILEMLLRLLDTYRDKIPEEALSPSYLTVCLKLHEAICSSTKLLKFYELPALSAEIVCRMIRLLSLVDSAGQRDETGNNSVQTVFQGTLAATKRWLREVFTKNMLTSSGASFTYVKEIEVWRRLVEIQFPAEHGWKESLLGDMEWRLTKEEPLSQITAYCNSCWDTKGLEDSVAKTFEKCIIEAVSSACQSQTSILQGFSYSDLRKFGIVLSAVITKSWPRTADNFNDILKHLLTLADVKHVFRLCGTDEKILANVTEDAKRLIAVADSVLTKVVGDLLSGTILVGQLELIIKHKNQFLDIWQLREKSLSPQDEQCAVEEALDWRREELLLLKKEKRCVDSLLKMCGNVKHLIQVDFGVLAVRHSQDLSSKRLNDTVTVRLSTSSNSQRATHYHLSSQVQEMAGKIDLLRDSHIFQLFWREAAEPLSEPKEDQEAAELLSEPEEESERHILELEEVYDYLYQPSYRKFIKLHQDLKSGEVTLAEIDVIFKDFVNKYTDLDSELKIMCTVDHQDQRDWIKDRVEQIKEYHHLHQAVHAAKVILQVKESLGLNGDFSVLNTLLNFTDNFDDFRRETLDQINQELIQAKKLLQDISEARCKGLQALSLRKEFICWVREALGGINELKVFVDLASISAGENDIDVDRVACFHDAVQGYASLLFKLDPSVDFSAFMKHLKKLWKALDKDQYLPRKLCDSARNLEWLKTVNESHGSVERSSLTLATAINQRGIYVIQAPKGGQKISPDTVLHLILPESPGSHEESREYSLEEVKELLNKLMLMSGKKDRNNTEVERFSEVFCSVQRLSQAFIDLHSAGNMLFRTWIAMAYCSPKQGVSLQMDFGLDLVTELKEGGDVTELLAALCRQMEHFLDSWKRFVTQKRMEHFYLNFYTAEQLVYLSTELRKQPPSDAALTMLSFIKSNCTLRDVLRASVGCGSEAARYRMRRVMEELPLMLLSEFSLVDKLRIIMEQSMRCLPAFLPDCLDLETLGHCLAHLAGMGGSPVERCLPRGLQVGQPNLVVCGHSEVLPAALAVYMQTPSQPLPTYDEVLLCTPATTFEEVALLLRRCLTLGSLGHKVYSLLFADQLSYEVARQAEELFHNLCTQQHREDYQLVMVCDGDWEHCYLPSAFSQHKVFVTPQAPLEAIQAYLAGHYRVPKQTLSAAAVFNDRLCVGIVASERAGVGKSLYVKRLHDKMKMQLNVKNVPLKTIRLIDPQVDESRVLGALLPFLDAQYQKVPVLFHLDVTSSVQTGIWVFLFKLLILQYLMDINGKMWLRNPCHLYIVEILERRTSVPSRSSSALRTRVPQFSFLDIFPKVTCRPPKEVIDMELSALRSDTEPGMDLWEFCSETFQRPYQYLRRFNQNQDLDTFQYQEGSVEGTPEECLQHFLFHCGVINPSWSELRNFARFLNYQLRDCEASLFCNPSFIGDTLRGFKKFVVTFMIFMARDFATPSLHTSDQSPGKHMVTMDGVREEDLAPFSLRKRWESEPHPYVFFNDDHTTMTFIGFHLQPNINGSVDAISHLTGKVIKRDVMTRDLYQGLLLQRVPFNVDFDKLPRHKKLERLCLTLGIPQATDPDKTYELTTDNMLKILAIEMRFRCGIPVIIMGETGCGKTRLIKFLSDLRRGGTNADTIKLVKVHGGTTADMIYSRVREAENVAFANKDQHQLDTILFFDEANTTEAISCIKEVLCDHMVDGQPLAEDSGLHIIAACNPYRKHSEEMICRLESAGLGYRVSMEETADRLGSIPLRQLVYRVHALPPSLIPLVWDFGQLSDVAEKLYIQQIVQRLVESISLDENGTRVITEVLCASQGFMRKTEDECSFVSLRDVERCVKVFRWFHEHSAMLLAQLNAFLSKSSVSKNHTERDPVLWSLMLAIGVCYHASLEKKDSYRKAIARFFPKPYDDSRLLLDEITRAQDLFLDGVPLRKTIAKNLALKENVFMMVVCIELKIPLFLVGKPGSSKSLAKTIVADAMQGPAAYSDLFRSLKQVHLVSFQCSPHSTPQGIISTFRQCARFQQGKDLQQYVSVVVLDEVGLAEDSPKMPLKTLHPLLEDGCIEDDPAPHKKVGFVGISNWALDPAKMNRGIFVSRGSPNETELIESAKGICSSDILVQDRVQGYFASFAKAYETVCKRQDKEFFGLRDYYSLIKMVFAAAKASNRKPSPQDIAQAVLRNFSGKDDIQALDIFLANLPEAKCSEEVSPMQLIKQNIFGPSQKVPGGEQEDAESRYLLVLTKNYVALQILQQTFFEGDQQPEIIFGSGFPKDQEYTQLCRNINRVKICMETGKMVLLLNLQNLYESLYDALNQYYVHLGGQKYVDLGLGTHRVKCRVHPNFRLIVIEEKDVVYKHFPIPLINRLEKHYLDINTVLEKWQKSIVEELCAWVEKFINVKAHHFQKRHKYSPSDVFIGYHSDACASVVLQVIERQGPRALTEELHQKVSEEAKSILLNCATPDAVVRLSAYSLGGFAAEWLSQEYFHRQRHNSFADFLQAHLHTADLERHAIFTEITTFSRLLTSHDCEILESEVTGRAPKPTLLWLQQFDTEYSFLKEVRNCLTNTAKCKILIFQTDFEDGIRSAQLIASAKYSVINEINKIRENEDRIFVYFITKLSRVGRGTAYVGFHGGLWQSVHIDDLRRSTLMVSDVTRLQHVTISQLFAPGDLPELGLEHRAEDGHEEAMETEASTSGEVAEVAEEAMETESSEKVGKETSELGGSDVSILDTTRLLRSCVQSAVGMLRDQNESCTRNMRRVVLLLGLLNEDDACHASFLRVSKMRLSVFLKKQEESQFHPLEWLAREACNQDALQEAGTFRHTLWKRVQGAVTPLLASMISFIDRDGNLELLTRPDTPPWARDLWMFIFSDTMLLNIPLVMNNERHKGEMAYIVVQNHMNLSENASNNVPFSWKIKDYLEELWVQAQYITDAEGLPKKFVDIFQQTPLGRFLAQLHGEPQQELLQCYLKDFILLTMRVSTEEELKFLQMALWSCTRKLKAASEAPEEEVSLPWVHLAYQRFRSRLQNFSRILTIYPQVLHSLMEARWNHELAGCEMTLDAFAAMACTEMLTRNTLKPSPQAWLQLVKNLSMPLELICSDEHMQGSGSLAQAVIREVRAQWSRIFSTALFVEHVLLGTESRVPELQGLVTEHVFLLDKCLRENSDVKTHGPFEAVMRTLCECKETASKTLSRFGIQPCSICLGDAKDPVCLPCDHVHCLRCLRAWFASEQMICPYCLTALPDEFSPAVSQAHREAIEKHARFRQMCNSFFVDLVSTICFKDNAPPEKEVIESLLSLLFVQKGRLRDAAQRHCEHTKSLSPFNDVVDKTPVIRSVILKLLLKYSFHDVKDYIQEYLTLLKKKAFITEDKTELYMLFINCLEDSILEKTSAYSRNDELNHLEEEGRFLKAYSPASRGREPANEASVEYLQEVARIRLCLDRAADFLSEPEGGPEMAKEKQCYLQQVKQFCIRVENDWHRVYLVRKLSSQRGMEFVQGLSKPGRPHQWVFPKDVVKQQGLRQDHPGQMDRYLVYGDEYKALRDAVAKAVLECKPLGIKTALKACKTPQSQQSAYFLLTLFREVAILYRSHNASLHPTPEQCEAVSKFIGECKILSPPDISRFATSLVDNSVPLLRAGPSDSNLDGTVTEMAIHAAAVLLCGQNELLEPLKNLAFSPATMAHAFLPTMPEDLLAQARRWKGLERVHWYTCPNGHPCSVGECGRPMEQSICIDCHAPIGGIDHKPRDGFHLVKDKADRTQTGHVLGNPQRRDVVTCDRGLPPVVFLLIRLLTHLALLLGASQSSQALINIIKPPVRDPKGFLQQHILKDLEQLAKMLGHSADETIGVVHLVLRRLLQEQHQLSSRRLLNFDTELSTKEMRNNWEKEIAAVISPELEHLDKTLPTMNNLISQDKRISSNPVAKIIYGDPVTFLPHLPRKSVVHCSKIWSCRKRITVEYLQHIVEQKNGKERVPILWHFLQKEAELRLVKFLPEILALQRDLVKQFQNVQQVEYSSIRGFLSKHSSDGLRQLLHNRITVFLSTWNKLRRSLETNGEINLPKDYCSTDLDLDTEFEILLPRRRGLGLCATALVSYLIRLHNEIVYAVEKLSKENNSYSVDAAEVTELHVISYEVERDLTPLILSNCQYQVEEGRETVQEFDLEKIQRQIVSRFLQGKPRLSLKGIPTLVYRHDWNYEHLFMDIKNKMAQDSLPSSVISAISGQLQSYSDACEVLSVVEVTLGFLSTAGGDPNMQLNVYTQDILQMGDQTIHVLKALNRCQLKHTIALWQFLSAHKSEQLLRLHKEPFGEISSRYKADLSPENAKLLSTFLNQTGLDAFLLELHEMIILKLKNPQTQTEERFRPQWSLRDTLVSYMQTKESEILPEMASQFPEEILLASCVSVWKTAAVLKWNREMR
# UniProt P28482: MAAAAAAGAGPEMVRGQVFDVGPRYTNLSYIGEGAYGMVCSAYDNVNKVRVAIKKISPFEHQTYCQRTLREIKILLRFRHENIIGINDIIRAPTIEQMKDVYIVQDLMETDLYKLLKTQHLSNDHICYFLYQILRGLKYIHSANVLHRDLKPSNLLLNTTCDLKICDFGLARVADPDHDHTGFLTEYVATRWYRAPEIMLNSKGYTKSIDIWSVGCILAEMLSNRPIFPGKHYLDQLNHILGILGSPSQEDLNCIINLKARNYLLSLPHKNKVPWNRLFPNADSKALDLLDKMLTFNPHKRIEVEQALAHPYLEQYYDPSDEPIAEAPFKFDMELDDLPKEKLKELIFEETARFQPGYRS
# Molecular target: RNF213-TurboID (UniProt Q63HN8)
# Assay: proximity labelling
row,binding,Molecule
1,binds,"SPATA2 (protein, UniProt Q9UM82 1-520) MGKPSSMDTKFKDDLFRKYVQFHESKVDTTTSRQRPGSDECLRVAASTLLSLHKVDPFYRFRLIQFYEVVESSLRSLSSSSLRALHGAFSMLETVGINLFLYPWKKEFRSIKTYTGPFVYYVKSTLLEEDIRAILSCMGYTPELGTAYKLRELVETLQVKMVSFELFLAKVECEQMLEIHSQVKDKGYSELDIVSERKSSAEDVRGCSDALRRRAEGREHLTASMSRVALQKSASERAAKDYYKPRVTKPSRSVDAYDSYWESRKPPLKASLSLRKEPVATDVGDDLKDEIIRPSPSLLTMASSPHGSPDVLPPASPSNGPALLRGTYFSTQDDVDLYTDSEPRATYRRQDALRPDVWLLRNDAHSLYHKRSPPAKESALSKCQSCGLSCSSSLCQRCDSLLTCPPASKPSAFPSKASTHDSLAHGASLREKYPGQTQGLDRLPHLHSKSKPSTTPTSRCGFCNRPGATNTCTQCSKVSCDACLSAYHYDPCYKKSELHKFMPNNQLNYKSTQLSHLVYR"
2,binds,"PTP1B (PTPN1) (enzyme, UniProt P18031 1-435) MEMEKEFEQIDKSGSWAAIYQDIRHEASDFPCRVAKLPKNKNRNRYRDVSPFDHSRIKLHQEDNDYINASLIKMEEAQRSYILTQGPLPNTCGHFWEMVWEQKSRGVVMLNRVMEKGSLKCAQYWPQKEEKEMIFEDTNLKLTLISEDIKSYYTVRQLELENLTTQETREILHFHYTTWPDFGVPESPASFLNFLFKVRESGSLSPEHGPVVVHCSAGIGRSGTFCLADTCLLLMDKRKDPSSVDIKKVLLEMRKFRMGLIQTADQLRFSYLAVIEGAKFIMGDSSVQDQWKELSHEDLEPPPEHIPPPPRPPKRILEPHNGKCREFFPNHQWVKEETQEDKDCPIKEEKGSPLNAAPYGIESMSQDTEVRSRVVGGSLRGAQAASPAKGEPSLPEKDEDHALSYWKPFLVNMCVATVLTAGAYLCYRFLFNSNT"

# Molecular target: RNF213-TurboID (UniProt Q63HN8)
# Assay: proximity labelling
# Remark: another data set of the same source
row,Molecule,binding
1,MAP4K4 (from UniProt O95819 1-1239) (enzyme),binds
2,ERK2 (from UniProt P28482 1-360) (enzyme),no binding
3,"CPEB4 (protein, UniProt Q17RY0 1-729) MGDYGFGVLVQSNTGNKSAFPVRFHPHLQPPHHHQNATPSPAAFINNNTAANGSSAGSAWLFPAPATHNIQDEILGSEKAKSQQQEQQDPLEKQQLSPSPGQEAGILPETEKAKSEENQGDNSSENGNGKEKIRIESPVLTGFDYQEATGLGTSTQPLTSSASSLTGFSNWSAAIAPSSSTIINEDASFFHQGGVPAASANNGALLFQNFPHHVSPGFGGSFSPQIGPLSQHHPHHPHFQHHHSQHQQQRRSPASPHPPPFTHRNAAFNQLPHLANNLNKPPSPWSSYQSPSPTPSSSWSPGGGGYGGWGGSQGRDHRRGLNGGITPLNSISPLKKNFASNHIQLQKYARPSSAFAPKSWMEDSLNRADNIFPFPDRPRTFDMHSLESSLIDIMRAENDTIKGRLNYSYPGSDSSLLINARTYGRRRGQSSLFPMEDGFLDDGRGDQPLHSGLGSPHCFSHQNGERVERYSRKVFVGGLPPDIDEDEITASFRRFGPLIVDWPHKAESKSYFPPKGYAFLLFQDESSVQALIDACIEEDGKLYLCVSSPTIKDKPVQIRPWNLSDSDFVMDGSQPLDPRKTIFVGGVPRPLRAVELAMIMDRLYGGVCYAGIDTDPELKYPKGAGRVAFSNQQSYIAAISARFVQLQHGEIDKRVEVKPYVLDDQLCDECQGARCGGKFAPFFCANVTCLQYYCEYCWAAIHSRAGREFHKPLVKEGGDRPRHISFRWN",binds
4,"SPATA2 (protein, UniProt Q9UM82 1-520) MGKPSSMDTKFKDDLFRKYVQFHESKVDTTTSRQRPGSDECLRVAASTLLSLHKVDPFYRFRLIQFYEVVESSLRSLSSSSLRALHGAFSMLETVGINLFLYPWKKEFRSIKTYTGPFVYYVKSTLLEEDIRAILSCMGYTPELGTAYKLRELVETLQVKMVSFELFLAKVECEQMLEIHSQVKDKGYSELDIVSERKSSAEDVRGCSDALRRRAEGREHLTASMSRVALQKSASERAAKDYYKPRVTKPSRSVDAYDSYWESRKPPLKASLSLRKEPVATDVGDDLKDEIIRPSPSLLTMASSPHGSPDVLPPASPSNGPALLRGTYFSTQDDVDLYTDSEPRATYRRQDALRPDVWLLRNDAHSLYHKRSPPAKESALSKCQSCGLSCSSSLCQRCDSLLTCPPASKPSAFPSKASTHDSLAHGASLREKYPGQTQGLDRLPHLHSKSKPSTTPTSRCGFCNRPGATNTCTQCSKVSCDACLSAYHYDPCYKKSELHKFMPNNQLNYKSTQLSHLVYR",binds
5,"PTP1B (PTPN1) (enzyme, UniProt P18031 1-435) MEMEKEFEQIDKSGSWAAIYQDIRHEASDFPCRVAKLPKNKNRNRYRDVSPFDHSRIKLHQEDNDYINASLIKMEEAQRSYILTQGPLPNTCGHFWEMVWEQKSRGVVMLNRVMEKGSLKCAQYWPQKEEKEMIFEDTNLKLTLISEDIKSYYTVRQLELENLTTQETREILHFHYTTWPDFGVPESPASFLNFLFKVRESGSLSPEHGPVVVHCSAGIGRSGTFCLADTCLLLMDKRKDPSSVDIKKVLLEMRKFRMGLIQTADQLRFSYLAVIEGAKFIMGDSSVQDQWKELSHEDLEPPPEHIPPPPRPPKRILEPHNGKCREFFPNHQWVKEETQEDKDCPIKEEKGSPLNAAPYGIESMSQDTEVRSRVVGGSLRGAQAASPAKGEPSLPEKDEDHALSYWKPFLVNMCVATVLTAGAYLCYRFLFNSNT",binds
6,"ALDH1B1 (enzyme, UniProt P30837 18-517) RYSSAAALPSPILNPDIPYNQLFINNEWQDAVSKKTFPTVNPTTGEVIGHVAEGDRADVDRAVKAAREAFRLGSPWRRMDASERGRLLNRLADLVERDRVYLASLETLDNGKPFQESYALDLDEVIKVYRYFAGWADKWHGKTIPMDGQHFCFTRHEPVGVCGQIIPWNFPLVMQGWKLAPALATGNTVVMKVAEQTPLSALYLASLIKEAGFPPGVVNIITGYGPTAGAAIAQHVDVDKVAFTGSTEVGHLIQKAAGDSNLKRVTLELGGKSPSIVLADADMEHAVEQCHEALFFNMGQCCCAGSRTFVEESIYNEFLERTVEKAKQRKVGNPFELDTQQGPQVDKEQFERVLGYIQLGQKEGAKLLCGGERFGERGFFIKPTVFGGVQDDMRIAKEEIFGPVQPLFKFKKIEEVVERANNTRYGLAAAVFTRDLDKAMYFTQALQAGTVWVNTYNIVTCHTPFGGFKESGNGRELGEDGLKAYTEVKTVTIKVPQKNS",binds

# Now from value to molecule:
row,binding,Molecule
1,binds,MYOF (from UniProt Q9NZM1 1-2061)
2,binds,"USP15 (enzyme, UniProt Q9Y4E8 1-981) MAEGGAADLDTQRSDIATLLKTSLRKGDTWYLVDSRWFKQWKKYVGFDSWDKYQMGDQNVYPGPIDNSGLLKDGDAQSLKEHLIDELDYILLPTEGWNKLVSWYTLMEGQEPIARKVVEQGMFVKHCKVEVYLTELKLCENGNMNNVVTRRFSKADTIDTIEKEIRKIFSIPDEKETRLWNKYMSNTFEPLNKPDSTIQDAGLYQGQVLVIEQKNEDGTWPRGPSTPKSPGASNFSTLPKISPSSLSNNYNNMNNRNVKNSNYCLPSYTAYKNYDYSEPGRNNEQPGLCGLSNLGNTCFMNSAIQCLSNTPPLTEYFLNDKYQEELNFDNPLGMRGEIAKSYAELIKQMWSGKFSYVTPRAFKTQVGRFAPQFSGYQQQDCQELLAFLLDGLHEDLNRIRKKPYIQLKDADGRPDKVVAEEAWENHLKRNDSIIVDIFHGLFKSTLVCPECAKISVTFDPFCYLTLPLPMKKERTLEVYLVRMDPLTKPMQYKVVVPKIGNILDLCTALSALSGIPADKMIVTDIYNHRFHRIFAMDENLSSIMERDDIYVFEININRTEDTEHVIIPVCLREKFRHSSYTHHTGSSLFGQPFLMAVPRNNTEDKLYNLLLLRMCRYVKISTETEETEGSLHCCKDQNINGNGPNGIHEEGSPSEMETDEPDDESSQDQELPSENENSQSEDSVGGDNDSENGLCTEDTCKGQLTGHKKRLFTFQFNNLGNTDINYIKDDTRHIRFDDRQLRLDERSFLALDWDPDLKKRYFDENAAEDFEKHESVEYKPPKKPFVKLKDCIELFTTKEKLGAEDPWYCPNCKEHQQATKKLDLWSLPPVLVVHLKRFSYSRYMRDKLDTLVDFPINDLDMSEFLINPNAGPCRYNLIAVSNHYGGMGGGHYTAFAKNKDDGKWYYFDDSSVSTASEDQIVSKAAYVLFYQRQDTFSGTGFFPLDRETKGASAATGIPLESDEDSNDNDNDIENENCMHTN"
3,binds,"SPTLC1 (enzyme, UniProt O15269 1-473) MATATEQWVLVEMVQALYEAPAYHLILEGILILWIIRLLFSKTYKLQERSDLTVKEKEELIEEWQPEPLVPPVPKDHPALNYNIVSGPPSHKTVVNGKECINFASFNFLGLLDNPRVKAAALASLKKYGVGTCGPRGFYGTFDVHLDLEDRLAKFMKTEEAIIYSYGFATIASAIPAYSKRGDIVFVDRAACFAIQKGLQASRSDIKLFKHNDMADLERLLKEQEIEDQKNPRKARVTRRFIVVEGLYMNTGTICPLPELVKLKYKYKARIFLEESLSFGVLGEHGRGVTEHYGINIDDIDLISANMENALASIGGFCCGRSFVIDHQRLSGQGYCFSASLPPLLAAAAIEALNIMEENPGIFAVLKEKCGQIHKALQGISGLKVVGESLSPAFHLQLEESTGSREQDVRLLQEIVDQCMNRSIALTQARYLEKEEKCLPPPSIRVVVTVEQTEEELERAASTIKEVAQAVLL"

# Molecular target: TurboID-RNF213 (UniProt Q63HN8)
# Assay: proximity labelling
row,binding,Molecule
1,binds,"CYP51A1 (enzyme, UniProt Q16850 1-509) MAAAAGMLLLGLLQAGGSVLGQAMEKVTGGNLLSMLLIACAFTLSLVYLIRLAAGHLVQLPAGVKSPPYIFSPIPFLGHAIAFGKSPIEFLENAYEKYGPVFSFTMVGKTFTYLLGSDAAALLFNSKNEDLNAEDVYSRLTTPVFGKGVAYDVPNPVFLEQKKMLKSGLNIAHFKQHVSIIEKETKEYFESWGESGEKNVFEALSELIILTASHCLHGKEIRSQLNEKVAQLYADLDGGFSHAAWLLPGWLPLPSFRRRDRAHREIKDIFYKAIQKRRQSQEKIDDILQTLLDATYKDGRPLTDDEVAGMLIGLLLAGQHTSSTTSAWMGFFLARDKTLQKKCYLEQKTVCGENLPPLTYDQLKDLNLLDRCIKETLRLRPPIMIMMRMARTPQTVAGYTIPPGHQVCVSPTVNQRLKDSWVERLDFNPDRYLQDNPASGEKFAYVPFGAGRHRCIGENFAYVQIKTIWSTMLRLYEFDLIDGYFPTVNYTTMIHTPENPVIRYKRRSK"

# These are yes or no findings as the source states them, for the method shown. Binding seen in cells or lysates may run through a third protein. These calls come from enrichment with a bait or labelling near it, and not all partners need be listed. For part of these data: No binding means not detected with the bait.
